PubChem BioAssay AID1259254, NCATS, 2017
In all, the deposit lists about 59,000 reagents; this is a random part of them. About 1,550 of them (2.6%) were called active. 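G2 share is only a proxy for re-replication; each gene was hit by three separate siRNAs, and active genes were retested.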 Raw values are not corrected between plates. Unmarked entries are inactive. Reagents against one gene are numbered here. The record does not give: the amount of reagent.

Aim: 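Finding genes that stop cells copying their DNA twice in one cycle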 (primary screen)
Cell system: human HCT116 colorectal cancer cells
Reagent: single siRNA against human genes
Duration: 3 days
Measured: 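Nuclei stained with Hoechst and imaged; cell-cycle phase assigned by DNA content; G2 share scaled per plate, non-targeting siRNA 0%, GMNN siRNA 100%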
Direction: G2 robust z-score and G2 cells, % of GMNN control: higher = more G2 cells, more excess DNA replication; raw share of cells in G2: higher = larger share of cells with G2 DNA content
Call rule: 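Active siRNAs have a G2 robust z of 5 or more median absolute deviations over the median, which in these data means about 38% or higher of GMNN control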

target	reagent no.	G2 robust z-score	G2 cells, % of GMNN control	raw share of cells in G2 (%)
ZC3H18	1	0.511	6.56	6.72
ZC3H18	2	-0.998	-4.05	2.12
ZC3H18	3	1.91	16.4	6.61
IRAK4	1	1.72	15.1	10.3
IRAK4	2	-0.0358	2.72	6.18
IRAK4	3	3.56	28	12.6
SMARCE1	1	3.33	26.4	14.6
SMARCE1	2	4.75	36.4	17
SMARCE1	3	0.208	4.43	5.42
VAMP7	1	0.0872	3.58	4.88
VAMP7	2	0.555	6.88	8.07
VAMP7	3	-0.25	1.21	3.55
ATG4D	1	-0.371	0.356	4.62
ATG4D	2	1.33	12.3	11.4
ATG4D	3	-0.752	-2.32	3.97
CAMK1G	1	1.41	12.9	7.8
CAMK1G	2	-1.33	-6.37	3.61
CAMK1G	3	0.706	7.93	8.08
MMP20	1	0.824	8.77	8.62
MMP20	2	-0.738	-2.22	4.12
MMP20	3	-0.929	-3.57	2.58
GPR139	1	1.35	12.5	10.3
GPR139	2	4.35	33.6	16.3
GPR139	3	0.567	6.96	5.4
ADCK5	1	-0.593	-1.2	3.3
ADCK5	2	0.571	6.99	7.76
ADCK5	3	-0.683	-1.84	4.52
AP1S3	1	1.37	12.6	9.24
AP1S3	2	-1.26	-5.93	2.42
AP1S3	3	0.134	3.91	7.49
